The source of these data is paper PMC9198273.

Chains of the proteins cited; added tags and fusions are not shown. Lines headed by an entry give the natural chain unless they say otherwise; changes in a name come on top. A line that says so, or that is headed by a name, gives the form on record, which may keep a tag or linker. Residues count along the entry.
UniProt P49682: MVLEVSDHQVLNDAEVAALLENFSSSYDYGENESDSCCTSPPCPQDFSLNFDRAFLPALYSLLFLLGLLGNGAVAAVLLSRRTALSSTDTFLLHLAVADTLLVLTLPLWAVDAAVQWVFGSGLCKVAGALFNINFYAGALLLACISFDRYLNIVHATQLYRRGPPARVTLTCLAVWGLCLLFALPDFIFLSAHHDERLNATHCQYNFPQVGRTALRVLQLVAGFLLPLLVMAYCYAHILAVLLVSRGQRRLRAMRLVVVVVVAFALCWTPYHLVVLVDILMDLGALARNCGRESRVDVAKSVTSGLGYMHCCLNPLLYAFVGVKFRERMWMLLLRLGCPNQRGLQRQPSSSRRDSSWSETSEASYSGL
CXCR3-B C-terminally fused to mNeonGreen (P49682, form named): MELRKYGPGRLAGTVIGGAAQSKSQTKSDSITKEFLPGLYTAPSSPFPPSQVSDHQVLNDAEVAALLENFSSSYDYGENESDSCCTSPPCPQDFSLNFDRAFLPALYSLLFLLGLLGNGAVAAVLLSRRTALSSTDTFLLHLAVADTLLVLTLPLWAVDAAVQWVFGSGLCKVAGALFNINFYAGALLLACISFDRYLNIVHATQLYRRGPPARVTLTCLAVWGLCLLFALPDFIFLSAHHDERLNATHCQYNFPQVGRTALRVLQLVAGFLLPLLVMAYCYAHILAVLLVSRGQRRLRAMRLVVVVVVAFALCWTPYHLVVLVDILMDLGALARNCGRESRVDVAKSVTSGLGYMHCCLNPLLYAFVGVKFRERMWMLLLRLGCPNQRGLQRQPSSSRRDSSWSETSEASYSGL
UniProt P49407: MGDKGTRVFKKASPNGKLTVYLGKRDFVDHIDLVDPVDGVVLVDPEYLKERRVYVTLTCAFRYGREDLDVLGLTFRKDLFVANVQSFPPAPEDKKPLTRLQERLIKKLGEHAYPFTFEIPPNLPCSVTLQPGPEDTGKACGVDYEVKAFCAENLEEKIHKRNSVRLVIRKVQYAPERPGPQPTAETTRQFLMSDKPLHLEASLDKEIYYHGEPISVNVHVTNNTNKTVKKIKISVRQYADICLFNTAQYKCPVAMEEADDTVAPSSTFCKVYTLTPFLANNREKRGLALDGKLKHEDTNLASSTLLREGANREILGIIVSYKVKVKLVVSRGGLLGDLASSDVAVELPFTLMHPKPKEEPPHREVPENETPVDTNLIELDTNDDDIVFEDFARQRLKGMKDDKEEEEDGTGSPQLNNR
UniProt P13501, residues 24-91: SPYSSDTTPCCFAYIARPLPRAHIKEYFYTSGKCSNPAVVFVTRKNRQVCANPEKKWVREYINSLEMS

These are yes or no findings as the source states them, for the method shown. For some assays here: In cells and extracts the contact can be indirect. Some entries that bind do so weakly or less than the wild type.

The target in test [1] is CXCR3-B C-terminally fused with SmBiT (human) (UniProt P49682). In words: split reporter; live U-87 MG cells, receptor-SmBiT and LgBiT-β-arrestin; stimulated with CXCL11 or CXCL10.
For test [2], the target named is CXCR3-A C-terminally fused with SmBiT (human) (UniProt P49682). Described as above.
The target of test [3] is CXCR3-B C-terminally fused with SmBiT (human) (UniProt P49682). As to the kind of experiment: split reporter; live U-87 MG cells, receptor-SmBiT and LgBiT-β-arrestin; stimulated with CXCL10.
For test [4] the target is unchanged. In words: split reporter; live U-87 MG cells, receptor-SmBiT and LgBiT-β-arrestin; stimulated with CXCL9.
Test [5] deals with CXCR3-A C-terminally fused with SmBiT (human) (UniProt P49682). Described as above.
For test [6], the target named is CXCR3-B C-terminally fused with SmBiT (human) (UniProt P49682). As to the kind of experiment: split reporter; live HEK293T cells, receptor-SmBiT and LgBiT-β-arrestin; stimulated with CXCL9.
In test [7] the target is CXCR3-A C-terminally fused with SmBiT (human) (UniProt P49682). The description is as above.
Test [8] addresses CXCR3-B C-terminally fused with SmBiT (human) (UniProt P49682). As to the kind of experiment: split reporter; live HEK293T cells co-transfected with receptor-SmBiT and LgBiT-miniG or LgBiT-β-arrestin; coelenterazine H in Opti-MEM; stimulated with CXCL11, CXCL10 or CXCL9 (concentration-response).
For test [9], the target named is CXCR3-A C-terminally fused with SmBiT (human) (UniProt P49682). The test is described as above.
Test [10] addresses CXCR3-B C-terminally fused with SmBiT (human) (UniProt P49682). As to the kind of experiment: split reporter; live HEK293T cells, receptor-SmBiT and LgBiT-β-arrestin; stimulated with CXCL10.
Test [11] addresses CXCR3-A C-terminally fused to mNeonGreen (human) (UniProt P49682). As to the kind of experiment: flow cytometry on cells; HEK293T cells transiently expressing receptor-mNeonGreen incubated 1 hour at 37°C (uptake) or 4°C with 33 nM Alexa Fluor 647-labeled chemokine, with or without proteinase K treatment afterwards; only the binder purified.
Test [12] concerns the target CXCR3-B C-terminally fused to mNeonGreen (human) (UniProt P49682). The test is described as above.
The target in test [13] is CXCR3-A C-terminally fused to mNeonGreen (human) (UniProt P49682). In words: FRET or BRET; NanoBRET in live HEK293T cells, nanoluciferase-β-arrestin and receptor-mNeonGreen; stimulated with CXCL9.
The target in test [14] is CXCR3-B C-terminally fused to mNeonGreen (human) (UniProt P49682). The test is described as above.
The target of test [15] is CXCR3-A C-terminally fused to mNeonGreen (human) (UniProt P49682). In words: FRET or BRET; NanoBRET in live HEK293T cells, nanoluciferase-β-arrestin and receptor-mNeonGreen; stimulated with CXCL11 or CXCL10.
Test [16] addresses CXCR3-B C-terminally fused to mNeonGreen (human) (UniProt P49682). Described as above.
For test [17] the target is unchanged. As to the kind of experiment: FRET or BRET; NanoBRET in live HEK293T cells, nanoluciferase-β-arrestin and receptor-mNeonGreen; stimulated with CXCL10.

Consider “β-arrestin-1 N-terminally fused with LgBiT (from UniProt P49407 1-418)”, for which the binding result in test [1] is “binds”; in test [2], “binds”; in test [3], “binds weakly”; in test [4], “binds weakly”; in test [5], “binds weakly”; in [6] it was “binds weakly”. Besides, the binding entry is “binds weakly” in test [7], “binds” in test [8], “binds” in test [9] and “binds weakly” in test [10].
For “CCL5 coupled to Alexa Fluor 647 (from UniProt P13501 24-91) (ligand)”, the binding result in [11] and in test [12] was “no binding (tested: 33 nM)” in each case.
Consider “β-arrestin-1 N-terminally fused with nanoluciferase (from UniProt P49407 1-418)”, for which the binding entry in test [13] was “binds weakly”; in test [14] it was “binds weakly”; in test [15] it was “binds”; in test [16], “binds”; in test [17] it was “binds weakly”.
